{"source": "paper PMC10761396", "about": "“Evaluation of new alternative methods for the identification of estrogenic, androgenic and steroidogenic effects: a comparative in vitro/in silico study” (Archives of Toxicology, 2023)", "system": "human (non-selective) ER", "assay": "ER radioligand ([3H]estradiol) receptor-binding assay", "conditions": "single-dose screening, 10 µM", "data": [{"smiles": "CC/C(=C(\\c1ccccc1)c1ccc(OCCN(C)C)cc1)c1ccccc1", "note": "[Tamoxifen, reference compound]", "values": [{"measurement": "inhibition of control specific binding to the ER", "result": "more than 50%"}]}]}
